No constants are given. Whether binding was seen depends on the method and setting. Some results given as binding are weak or reduced against the parent protein; the word gives no strength.
Tests used:
Duo1p (yeast) [1] = target: T1, Duo1p (yeast) (UniProt P53168); assay: cross-linking; Dam1 complex (20 ug) on taxol-stabilised MTs in BRB80, 25 °C, DSS 2 min, quenched, pelleted at 130,000g; MS, Kojak, 1% FDR (458 unique distance restraints within the complex); contacts between subunits read from the integrative model (IMP) built on these cross-links; both purified
T1 sequence: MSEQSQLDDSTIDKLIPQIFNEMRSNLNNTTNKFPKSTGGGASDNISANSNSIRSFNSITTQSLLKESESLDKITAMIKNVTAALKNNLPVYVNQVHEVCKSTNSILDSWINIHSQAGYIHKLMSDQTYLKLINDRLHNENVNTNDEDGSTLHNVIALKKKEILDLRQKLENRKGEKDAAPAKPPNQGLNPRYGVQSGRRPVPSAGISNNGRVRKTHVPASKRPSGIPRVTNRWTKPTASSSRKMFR

Ask1p (yeast) [2] = target: T2, Ask1p (yeast) (UniProt P35734); assay: as above
T2 sequence: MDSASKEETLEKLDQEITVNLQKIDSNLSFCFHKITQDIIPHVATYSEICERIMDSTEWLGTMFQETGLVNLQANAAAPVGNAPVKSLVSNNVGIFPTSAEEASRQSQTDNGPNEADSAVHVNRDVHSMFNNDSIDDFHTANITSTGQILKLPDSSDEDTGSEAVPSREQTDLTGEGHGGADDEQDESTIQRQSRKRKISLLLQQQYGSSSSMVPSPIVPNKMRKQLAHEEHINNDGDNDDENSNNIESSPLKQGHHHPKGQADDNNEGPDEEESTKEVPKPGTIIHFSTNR

Duo1p (yeast) [3] = target: T1, Duo1p (yeast); assay: cross-linking; free Dam1 complex without MTs: 40 ug in 500 mM NaCl, 50 mM phosphate pH 6.9, 0.48 mM DSS, 2 min, 25 °C; trypsin, MS, Kojak, 1% FDR (678 unique distance restraints); contacts between subunits read from the integrative model (IMP) built on these cross-links; both purified
Ask1p (yeast) [4] = target: T2, Ask1p (yeast); assay: as above
Spc19p (yeast) [5] = target: T3, Spc19p (yeast) (UniProt Q03954); assay: cross-linking; Dam1 complex (20 ug) on taxol-stabilised MTs in BRB80, 25 °C, DSS 2 min, quenched, pelleted at 130,000g; MS, Kojak, 1% FDR (458 unique distance restraints within the complex); contacts between subunits read from the integrative model (IMP) built on these cross-links; both purified
T3 sequence: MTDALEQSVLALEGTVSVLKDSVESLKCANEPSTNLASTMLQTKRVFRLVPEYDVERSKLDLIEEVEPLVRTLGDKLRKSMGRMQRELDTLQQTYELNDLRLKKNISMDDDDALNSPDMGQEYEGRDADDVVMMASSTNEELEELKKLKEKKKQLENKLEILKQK

Dad3p (yeast) [6] = target: T4, Dad3p (yeast) (UniProt P69850); assay: as above
T4 sequence: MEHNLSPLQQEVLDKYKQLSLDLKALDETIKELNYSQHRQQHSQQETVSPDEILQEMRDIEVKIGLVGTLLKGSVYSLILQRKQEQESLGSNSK

Dad2p (yeast) [7] = target: T5, Dad2p (yeast) (UniProt P36162); assay: as above
T5 sequence: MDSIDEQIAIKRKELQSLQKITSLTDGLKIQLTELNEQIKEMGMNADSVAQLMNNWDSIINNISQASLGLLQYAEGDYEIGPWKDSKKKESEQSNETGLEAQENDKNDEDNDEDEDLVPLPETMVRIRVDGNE

Spc19p (yeast) [8] = target: T3, Spc19p (yeast); assay: cross-linking; free Dam1 complex without MTs: 40 ug in 500 mM NaCl, 50 mM phosphate pH 6.9, 0.48 mM DSS, 2 min, 25 °C; trypsin, MS, Kojak, 1% FDR (678 unique distance restraints); contacts between subunits read from the integrative model (IMP) built on these cross-links; both purified
Dad3p (yeast) [9] = target: T4, Dad3p (yeast); assay: as above
Dad2p (yeast) [10] = target: T5, Dad2p (yeast); assay: as above

Measured: binding

B1: Dam1p (protein, UniProt P53267 1-343)
chain: MSEDKAKLGTTRSATEYRLSIGSAPTSRRSSMGESSSLMKFADQEGLTSSVGEYNENTIQQLLLPKIRELSDSIITLDSNFTRLNFIHESLADLNESLGSLLYGIMSNSWCVEFSQAPHDIQDDLIAIKQLKSLEDEKNNLVMELSNMERGIKRKKDEQGENDLAKASQNKQFNQPLFPSSQVRKYRSYDNRDKRKPSKIGNNLQVENEEDYEDDTSSEASFVLNPTNIGMSKSSQGHVTKTTRLNNNTNSKLRRKSILHTIRNSIASGADLPIENDNVVNLGDLHPNNRISLGSGAARVVNGPVTKNRNSMFSGRAERKPTESRHSVAKKTEKKINTRPPFR
binds: Duo1p (yeast) [1] | Ask1p (yeast) [2] | Duo1p (yeast) [3] | Ask1p (yeast) [4]

B2: Duo1p (protein, UniProt P53168 1-247)
chain: MSEQSQLDDSTIDKLIPQIFNEMRSNLNNTTNKFPKSTGGGASDNISANSNSIRSFNSITTQSLLKESESLDKITAMIKNVTAALKNNLPVYVNQVHEVCKSTNSILDSWINIHSQAGYIHKLMSDQTYLKLINDRLHNENVNTNDEDGSTLHNVIALKKKEILDLRQKLENRKGEKDAAPAKPPNQGLNPRYGVQSGRRPVPSAGISNNGRVRKTHVPASKRPSGIPRVTNRWTKPTASSSRKMFR
binds: Spc19p (yeast) [5] | Ask1p (yeast) [2]

B3: Spc34p (protein, UniProt P36131 1-295)
chain: MGESLDRCIDDINRAVDSMSTLYFKPPGIFHNAILQGASNKASIRKDITRLIKDCNHDEAYLLFKVNPEKQSVSRRDGKEGVFDYVIKRDTDMKRNRRLGRPGEKPIIHVPKEVYLNKDRLDLNNKRRRTATTSGGGLNGFIFDTDLIGSSVISNSSSGTFKALSAVFKDDPQIQRLLYALENGSVLMEEESNNQRRKTIFVEDFPTDLILKVMAEVTDLWPLTEFKQDYDQLYHNYEQLSSKLRFIKKEVLLQDDRLKTMSQYHPSSSHDVAKIIRKEKDEIRRLEMEIANLQE
binds: Spc19p (yeast) [5] | Dad3p (yeast) [6] | Dad2p (yeast) [7] | Spc19p (yeast) [8] | Dad3p (yeast) [9] | Dad2p (yeast) [10]
